Data on one molecule can be found in paper doi:10.1101/2021.04.21.440759.

These are yes or no findings as the source states them, for the method shown. Binding seen in cells or lysates may run through a third protein. Some results given as binding are weak or reduced against the parent protein; the word gives no strength.

In this test the target is DHX9 (human (endogenous in GM06990 and HEK293T)), Q08211. Description: co-IP. The conditions noted are these: remark: other sources report otherwise.

B1: Top3β, O95985 1-862 (enzyme)
chain: MKTVLMVAEKPSLAQSIAKILSRGSLSSHKGLNGACSVHEYTGTFAGQPVRFKMTSVCGHVMTLDFLGKYNKWDKVDPAELFSQAPTEKKEANPKLNMVKFLQVEGRGCDYIVLWLDCDKEGENICFEVLDAVLPVMNKAHGGEKTVFRARFSSITDTDICNAMACLGEPDHNEALSVDARQELDLRIGCAFTRFQTKYFQGKYGDLDSSLISFGPCQTPTLGFCVERHDKIQSFKPETYWVLQAKVNTDKDRSLLLDWDRVRVFDREIAQMFLNMTKLEKEAQVEATSRKEKAKQRPLALNTVEMLRVASSSLGMGPQHAMQTAERLYTQGYISYPRTETTHYPENFDLKGSLRQQANHPYWADTVKRLLAEGINRPRKGHDAGDHPPITPMKSATEAELGGDAWRLYEYITRHFIATVSHDCKYLQSTISFRIGPELFTCSGKTVLSPGFTEVMPWQSVPLEESLPTCQRGDAFPVGEVKMLEKQTNPPDYLTEAELITLMEKHGIGTDASIPVHINNICQRNYVTVESGRRLKPTNLGIVLVHGYYKIDAELVLPTIRSAVEKQLNLIAQGKADYRQVLGHTLDVFKRKFHYFVDSIAGMDELMEVSFSPLAATGKPLSRCGKCHRFMKYIQAKPSRLHCSHCDETYTLPQNGTIKLYKELRCPLDDFELVLWSSGSRGKSYPLCPYCYNHPPFRDMKKGMGCNECTHPSCQHSLSMLGIGQCVECESGVLVLDPTSGPKWKVACNKCNVVAHCFENAHRVRVSADTCSVCEAALLDVDFNKAKSPLPGDETQHMGCVFCDPVFQELVELKHAASCHPMHRGGPGRRQGRGRGRARRPPGKPNPRRPKDKMSALAAYFV
B1: the binding entry was “binds”.
